# Laboratory results as given in the supplement of paper PMC5949888.
# Most values lie at the floor of the assay. Slopes are relative: functional sequences can read slightly below zero.
# Test system: Saccharomyces cerevisiae PS128 hsf1 delta, HSF1(1-493) fusion
# Test: growth estimate (transactivation domain function in HSF1 fusion, heat-shock survival) (a.u. (slope of normalised read count over time)); higher = stronger growth at 37°C, i.e. more transactivation activity
# Settings: library: random library
row,Substance,growth estimate
1,ELRCYLTRENDATGTDGASA,< -0.25
2,ANRQPQLRD,< -0.25
3,VLRRGFQICTGCAPIVAGHA,< -0.25
4,LEKR,< -0.25
5,LSAGSRRIDFE,< -0.25
6,ELHIFFAPLGNNRMQGQNLA,< -0.25
7,IPSRDRISRVGRKLLLDGLI,< -0.25
8,TGVDAYPSLPSHVVRLEHCT,-0.246
9,SIVVCEVLSSRGSDDRRPIV,< -0.25
10,PTRRTEVRVPRGAA,< -0.25
11,VSRLKVSLSTYGE,-0.147
12,IDFVVLFV,< -0.25
13,MSITRETGVEIWLSRDLGHI,< -0.25
14,RRLKFSPWPCIYVLGSRIRY,< -0.25
15,MCERRVSRHVIGYSRLGLSA,< -0.25
16,WRGKLT,< -0.25
17,GSVRIT,< -0.25
18,IACGPEQFAWSASLKLAGPR,< -0.25
19,DGRHRS,< -0.25
20,TVCAMPATSVVEWSVVSAMA,< -0.25
21,LIRLNACTL,< -0.25
22,DKGAIYRDRLTLDWKQCMRC,< -0.25
23,SGIRSVPGSPLIMADILDTC,< -0.25
24,ANRDFSGHSILFGPQQGPDP,< -0.25
25,TRGYGNAGAHHSGQSVGGTD,< -0.253
26,HNRWLNRSVVRGGTEVTTMA,< -0.25

# Copied from the list.
# PTRRTEVRVPRGAA | growth estimate: < -0.25
# MSITRETGVEIWLSRDLGHI | growth estimate: < -0.25
# ELHIFFAPLGNNRMQGQNLA | growth estimate: < -0.25

# (continued)

row,Substance,growth estimate
1,VIHWAGKFMQYTALSIRKEP,< -0.25
2,MYRRQSFLKPG,< -0.25
3,RDESWAFISFLVSKFSFAVS,< -0.25
4,SAFRY,< -0.253
5,HTKWTQGSWHDRAHAVDQGP,< -0.25
6,RAAPKVEVFGFSTTITSLRV,< -0.25
7,LALDRLSWRLLLFVLSLAVP,< -0.25
8,PAVMQAYGGIPPKLQ,< -0.25
9,GQVFRVTEPLSWFHRILPQT,< -0.25
10,RKTSAR,< -0.25
11,NGSRWMSSAYSPRPMASVGD,< -0.25
12,EGNGCRKPTARIKCRHLSGR,< -0.25
13,LGRRSIRLGSGCG,< -0.25
14,RRPESGPHSSSVVVNVF,< -0.25
15,GKLDAVGINKR,< -0.25
16,TVPIGSWPKEAMNPSFKSFS,< -0.25
17,ASGAQPLVQADDQVASTAQG,< -0.25
18,LLTPAVEFSHRNPHHWVPAT,< -0.25
19,LFPEWCPAKRWFYQARTSSH,< -0.25
20,MVHGILSVSGAL,< -0.25
21,NRRPFKRNL,< -0.25
22,SILLSFALIVLGWVTVLNPS,< -0.25
23,PLRSPLY,< -0.25
24,RWAISQSGFKAVMVTRARKR,< -0.25
25,RKWGQVRADSSQTVRPRFIR,< -0.25
26,WGI,< -0.25

row,Substance,growth estimate
1,IKFRFPHLHKRLVRSLGTIV,< -0.25
2,YSAPAERTWVRRQMSR,< -0.25
3,KTSASRYVRGRSYQCGSFLP,< -0.25
4,RRSKDLSRTVLGFSGWQFC,< -0.25
5,HPLPVITHPSRAGWIVLAAS,< -0.25
6,VRDGRPGPCGALVPLSYNTR,< -0.25
7,FADTKRSRVLMVGCAHRPLA,< -0.25
8,ILTSFDDIIECSRQFLPQGA,-0.231
9,TDLTQYTWPERSTRHISMLF,< -0.25
10,HLSRLYP,< -0.25
11,GLFYEGHLRTVKLLRFVRAN,< -0.25
12,IYNNQVPTGTDVFQIPEQGS,< -0.25
13,IPPCEGP,< -0.25
14,LRVPPGV,< -0.25
15,TVFDVLRRYSP,< -0.25
16,GPGIRTSPISVARA,< -0.25
17,SLSEVDNSGL,< -0.25
18,SHLGP,< -0.25
19,LLVPSGQCHGFRRLSTSRQV,< -0.25
20,SDIDPLGHRH,< -0.25
21,TPVHGVRPEGTLRRDSYCDR,< -0.25
22,YSAPFLRPGT,< -0.25
23,HWNVSRAR,< -0.25
24,GGGSSAKTSTIGQCFDTRQD,< -0.25
25,AQAIVCNESCLPSRVSLLP,< -0.25
26,YDTHVGVPPRAASCCDIEAL,< -0.25

# 4 neighbouring entries out of the list so far:
row,Substance,growth estimate
18,SHLGP,< -0.25
19,LLVPSGQCHGFRRLSTSRQV,< -0.25
20,SDIDPLGHRH,< -0.25
21,TPVHGVRPEGTLRRDSYCDR,< -0.25

# (further entries)

row,Substance,growth estimate
1,KVPIRSD,< -0.25
2,KSTCIGPLPTRGRSCMISCG,< -0.25
3,AVGEMNLPYGK,< -0.25
4,GIQELSQADRFLRGRQRDPG,< -0.25
5,SLGCIAQLLVDSYVVSTEYV,< -0.25
6,RWGLQVTKQRERVGVMAQRV,< -0.25
7,APRLGR,< -0.25
8,INSPSSGRAKTS,< -0.25
9,RTVVKRPVYSVYSPASKMIR,< -0.25
10,LHWIGCQ,< -0.25
11,ATLEQIRG,< -0.25
12,AGVSWRRAEWSETKTLASHA,< -0.25
13,PGTSLEATSSPA,< -0.25
14,FGLLGRLNEIIRTHSAVGDQ,-0.248
15,ILFTRADCHTDIALMDS,< -0.25
16,SLTSMLR,< -0.25
17,LQGQISTNARIQLPNFPGGD,< -0.25
18,YPPVTVELTVRRSADSGISA,< -0.25
19,EVGRMLAGRQVSSLQAGGCA,< -0.25
20,EGRCLRYEHWVLYRRFSVNL,< -0.25
21,TKLLGVVPAGFEPSYSRVLE,< -0.25
22,AYTVGDWFCAQRRRNVRGMF,< -0.25
23,LPKPGRGVVWPSTHQDVRSD,< -0.25
24,TWRLAPRWLSGCQISLPILA,< -0.25
25,ARTFSGKFPSQSLPTLLSVA,0.007
26,KCADCADGLIFEAFEGAEHV,< -0.25

row,Substance,growth estimate
1,WVSATSLVLPGMFCRGESQL,< -0.25
2,FGPLLLSPSLFLGEIALISL,< -0.25
3,RTPMARNKRYISALYEAVYQ,< -0.25
4,KCSVTGFTRIWPPNTLLVRV,< -0.25
5,FRSYDEVRRISRCGTVASGF,< -0.25
6,HVSAGHRPCQLRRKERGKRS,< -0.25
7,WEKPRVLELGGQVEWRS,< -0.25
8,LGITCSKCTSSRCSRSLLPS,< -0.25
9,YSGNDHRARRVSPIN,< -0.25
10,VTVLERASDRKVIA,< -0.25
11,GNIESLVLATLSACSRPK,< -0.25
12,LEQRLVPSGRYYATMGSIDG,< -0.25
13,LLLPSHLISNWHPLG,< -0.25
14,VTIARLSCAGLFWTIDSGDQ,< -0.25
15,YGRGFKC,< -0.25
16,GSGAGPSGLLDTHR,< -0.25
17,IKWGNFEASEASGGLQAVSA,< -0.25
18,MLLR,< -0.25
19,GVLNRCLDGPESDDP,< -0.25
20,HPDAFHHAGRVLVLKTHVLH,< -0.25
21,LPLTFLQEGGILGVVSSAHP,< -0.25
22,SWYGLHS,< -0.25
23,DPLQIKVLVRLNPSESPRVA,< -0.25
24,RIRIRQLH,< -0.25
25,RARRLLQTHIHGHRTWSSFG,< -0.25
26,CDFRHRR,< -0.25
